Assay [1] addresses YopR wild type protein (YopR-His6) (SPβ prophage of Bacillus subtilis 168) (UniProt O34558). Put plainly: crystal structure.
Assay [2] has the same target. As to the kind of experiment: SEC.

Amino acid sequences for entries named in this document (tags omitted). Residues count along the entry.
UniProt O34558, 2-325: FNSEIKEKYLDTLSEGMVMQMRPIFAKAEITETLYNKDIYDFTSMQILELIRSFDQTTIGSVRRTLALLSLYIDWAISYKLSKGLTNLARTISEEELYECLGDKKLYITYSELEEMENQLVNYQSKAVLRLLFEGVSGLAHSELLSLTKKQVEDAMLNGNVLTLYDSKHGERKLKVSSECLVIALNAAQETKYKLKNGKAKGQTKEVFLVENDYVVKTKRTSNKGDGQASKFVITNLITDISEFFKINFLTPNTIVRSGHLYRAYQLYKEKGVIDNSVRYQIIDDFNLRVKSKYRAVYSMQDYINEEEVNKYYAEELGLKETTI

No constants are given. Whether binding was seen depends on the method and setting.

For “YopR wild type protein (YopR-His6) (from UniProt O34558 2-325)”, the binding entry in assay [1] was “no binding”; in assay [2] it was “no binding (tested: 100 µM)”.

For the origin of these results see doi:10.1101/2022.10.21.513154.
